# Results from PubChem BioAssay AID540303 (National Center for Advancing Translational Sciences (NCATS), 2011).
# Among all 330,000 compounds or so, about 1,000 (0.3%) were called active. Inconclusive means that the source gave no clear call. Such entries were picked first, then a sample of the others. Calls come from the whole dose curve; as a rule, active = well fitted inhibition curve with a large enough effect; inconclusive = small, poorly fitted or top-dose-only effect; inactive = no such curve, though single readings can be large or run the other way; tested in mouse RAW 264.7 cells. Potencies of inconclusive entries are doubtful fits and often do not repeat.
# Assay: qHTS for Inhibitors of Cell Surface uPA Generation; note: nearly all actives have a fitted effect of over 55% in size
# Conditions: cell surface uPA generation assay; series mostly up to 38.3 µM; activity change, negative = inhibition: at the top concentration
# Outline: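 RAW 264.7 cells (4000/well) were plated overnight at 37 C and then given compounds in a 1:5 series (up to 38.3 uM final) plus reagent for 24 h. Intracellular ATP was measured by ATP-Lite luminescence and stays elevated when uPA-dependent LF entry is blocked.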
# % is set by controls: 0 for no effect and ±100 for the full control effect; potency is the fitted concentration of half-maximal effect.
SMILES,Potency,"activity change, negative = inhibition"
CC(=O)c1ccc(N2CCN(c3ccc(S(=O)(=O)NCCCN(C)C)cc3[N+](=O)[O-])CC2)cc1,"inconclusive: 11.2 µM [inhibitor, single point]",–
CCCCC(=O)O[C@]1(C(=O)CO)CC[C@H]2[C@@H]3CCC4=CC(=O)CC[C@]4(C)[C@H]3[C@@H](O)C[C@@]21C,"inconclusive: 1.12 µM [inhibitor, partial curve, poor fit]",–
O=C(NC(=S)Nc1cccnc1Cl)c1ccco1,"inconclusive: 8.91 µM [inhibitor, partial curve, poor fit]",–
CCCc1sc(N/N=C/c2ccccn2)nc1-c1ccc(Br)cc1,"inconclusive: 1.41 µM [inhibitor, full curve, poor fit]",–
CCOC(=O)C(=O)NNc1ccc(F)cc1,–,inactive: -3.02%
O=C1N(CCCl)c2ccc(Br)cc2C12OCCO2,–,inactive: -0.384%
CCSCCc1nnc(NC(=O)Nc2cccc(C(F)(F)F)c2)s1,"inconclusive: 12.6 µM [inhibitor, partial curve, poor fit]",–
c1ccc(C2=NNC(c3ccccn3)=NN2)nc1,"inconclusive: 4.47 µM [inhibitor, partial curve, poor fit]",–
O=C(Nc1ccc(F)cc1)c1nc(S(=O)(=O)Cc2ccccc2)ncc1Cl,"inconclusive: 1.78 µM [inhibitor, full curve]",–
COc1cccc(OC)c1OC(=O)C1CC(=O)N(c2ccc3c(c2)OCCO3)C1 (configuration not stated),"inconclusive: 1.12 µM [inhibitor, full curve, poor fit]",–
O=C1NC(=O)C2(CCCCC2C2CCCCC2)N1 (configuration not stated),–,inactive: -1.23%
COc1cc(C(=O)ON=C2C3CC4CC(C3)CC2C4)cc(OC)c1OC,"inconclusive: 8.91 µM [inhibitor, partial curve]",–
CC(C)(C)c1ccc2c(c1)OC(C(=O)N/N=C\c1ccc(-c3cccc(C(=O)O)c3)o1)CO2 (configuration not stated),–,inactive: 4.82%
Cc1oc(-c2ccc(Cl)cc2)nc1CN1CCCC(C(=O)N2CCN(C(=O)c3ccco3)CC2)C1 (configuration not stated),"inconclusive: 12.6 µM [inhibitor, partial curve, poor fit]",–
O=C(Nc1ccccc1)c1nn(-c2cccc(C(F)(F)F)c2)ccc1=O,"inconclusive: 1 µM [inhibitor, full curve, poor fit]",–
Oc1ccc(N=Nc2ccccc2)o1,active: 6.31 µM,–
O=C(Nc1ccc2c(c1)CCC2)c1cccc(OC(F)F)c1,"inconclusive: 7.08 µM [inhibitor, single point]",–
O=C(Cn1cnc2c(nnn2Cc2ccc(F)cc2)c1=O)NCc1ccccc1,"inconclusive: 8.91 µM [inhibitor, partial curve, poor fit]",–
COc1ccc([C@H]2CC(=O)C=C(c3cc(C)ccc3OC)C2)cc1,active: 10 µM,–
NC(=O)c1cc([N+](=O)[O-])ccc1NCc1cccc2ccccc12,"inconclusive: 7.94 µM [inhibitor, single point]",–
O=C(NC(=S)NNC(=O)c1cnccn1)c1ccc(F)cc1,"inconclusive: 5.62 µM [inhibitor, partial curve, poor fit]",–

SMILES,Potency,"activity change, negative = inhibition"
C[C@]12c3[nH]c4cc(-c5ccco5)ccc4c3CCN1C(=O)[C@@H](CC(=O)NCc1cccc(C(F)(F)F)c1)C[C@@H]2C(=O)N1CCOCC1,"inconclusive: 28.2 µM [inhibitor, single point]",–
O=C(Nc1ccc(N2CCCC2)c(Cl)c1)c1ccco1,"inconclusive: 8.91 µM [inhibitor, partial curve, poor fit]",–
COc1cccc(C(=O)Nc2sc3c(c2C#N)CCN(C(C)=O)C3)c1,active: 0.398 µM,–
Cn1cnc2cc(NC(=O)c3ccco3)ccc21,"inconclusive: 10 µM [inhibitor, partial curve]",–
CC(C)C[C@H](NC(=O)c1nc[nH]c1C(=O)N1CCN(C(=O)OC(C)(C)C)CC1)C(=O)OC(C)(C)C,–,inactive: -17.9%
COc1ccc(C(=O)Nc2nc3ccc(OC)cc3s2)cc1,"inconclusive: 11.2 µM [inhibitor, single point]",–
O=c1c2ccccc2nc(SCc2cccc(F)c2)n1C1CCCC1,–,inactive: -0.12%
Cc1ccc(/C=C2/NC(=O)N(Cc3ccccc3)C2=O)s1,–,inactive: -8.56%
CC(=O)Nc1ccc(Nc2cc(C)nc3c(-c4ccc(Cl)cc4)c(C)nn23)cc1,–,inactive: -2.81%
Cc1c(CC(=O)O)c(=O)oc2cc3occ(-c4ccccc4)c3cc12,"inconclusive: 2 µM [inhibitor, full curve, poor fit]",–
O=c1cc(N/N=C/c2ccccc2)[nH]c(=O)[nH]1,–,inactive: 10.3%
Cc1ccc(Cl)c2c1NC(=O)C2=O,"inconclusive: 12.6 µM [inhibitor, single point]",–
COc1cc(/C=C/C(=O)c2ccc3c(c2)OCCO3)cc(OC)c1OC,"inconclusive: 10 µM [inhibitor, single point]",–
O=C(NNC(=O)c1ccc2ccccc2c1O)NC1CCCCC1,–,inactive: 3.36%
CC(=O)Nc1sc2c(c1C(c1ccccc1Cl)N1CCN(CCO)CC1)CCCC2 (configuration not stated),"inconclusive: 10 µM [inhibitor, partial curve, poor fit]",–
CCOc1ccc(CNC(=S)N/N=C/c2ccncc2)cc1,"inconclusive: 31.6 µM [inhibitor, partial curve, poor fit]",–
CC[N+](CC)(CC)CCCCOc1ccc2c(c1)C(=O)c1cc(OCCCC[N+](CC)(CC)CC)ccc1-2,"inconclusive: 3.55 µM [inhibitor, partial curve, poor fit]",–
Brc1cccc(CNc2nc3ccccc3n2CCN2CCCCC2)c1,"inconclusive: 28.2 µM [inhibitor, single point]",–
CN(C)CC/C=C1\c2ccccc2COc2ccccc21,"inconclusive: 10 µM [inhibitor, partial curve, poor fit]",–
CCC(C)Oc1cc(-c2ccnc(Nc3cccc(Cl)c3)n2)ccn1 (configuration not stated),"inconclusive: 7.94 µM [inhibitor, single point]",–
O=C(CSc1nnnn1C1CC1)N1CCN(c2ccc(O)cc2)CC1,"inconclusive: 8.91 µM [inhibitor, partial curve, poor fit]",–

# Two entries picked at random from those above, as already listed:
SMILES,Potency,"activity change, negative = inhibition"
Cn1cnc2cc(NC(=O)c3ccco3)ccc21,"inconclusive: 10 µM [inhibitor, partial curve]",–
CC(=O)Nc1ccc(Nc2cc(C)nc3c(-c4ccc(Cl)cc4)c(C)nn23)cc1,–,inactive: -2.81%
